Where two headings read alike, the source gives them in different places. For at least one entry, the source does not settle the construct or the ends of the probe. Where a protein sequence is shown, tags need not be part of it.
Target: T1, AtSR1 (Arabidopsis thaliana) (UniProt Q8GSA7)
T1 sequence (limits assumed): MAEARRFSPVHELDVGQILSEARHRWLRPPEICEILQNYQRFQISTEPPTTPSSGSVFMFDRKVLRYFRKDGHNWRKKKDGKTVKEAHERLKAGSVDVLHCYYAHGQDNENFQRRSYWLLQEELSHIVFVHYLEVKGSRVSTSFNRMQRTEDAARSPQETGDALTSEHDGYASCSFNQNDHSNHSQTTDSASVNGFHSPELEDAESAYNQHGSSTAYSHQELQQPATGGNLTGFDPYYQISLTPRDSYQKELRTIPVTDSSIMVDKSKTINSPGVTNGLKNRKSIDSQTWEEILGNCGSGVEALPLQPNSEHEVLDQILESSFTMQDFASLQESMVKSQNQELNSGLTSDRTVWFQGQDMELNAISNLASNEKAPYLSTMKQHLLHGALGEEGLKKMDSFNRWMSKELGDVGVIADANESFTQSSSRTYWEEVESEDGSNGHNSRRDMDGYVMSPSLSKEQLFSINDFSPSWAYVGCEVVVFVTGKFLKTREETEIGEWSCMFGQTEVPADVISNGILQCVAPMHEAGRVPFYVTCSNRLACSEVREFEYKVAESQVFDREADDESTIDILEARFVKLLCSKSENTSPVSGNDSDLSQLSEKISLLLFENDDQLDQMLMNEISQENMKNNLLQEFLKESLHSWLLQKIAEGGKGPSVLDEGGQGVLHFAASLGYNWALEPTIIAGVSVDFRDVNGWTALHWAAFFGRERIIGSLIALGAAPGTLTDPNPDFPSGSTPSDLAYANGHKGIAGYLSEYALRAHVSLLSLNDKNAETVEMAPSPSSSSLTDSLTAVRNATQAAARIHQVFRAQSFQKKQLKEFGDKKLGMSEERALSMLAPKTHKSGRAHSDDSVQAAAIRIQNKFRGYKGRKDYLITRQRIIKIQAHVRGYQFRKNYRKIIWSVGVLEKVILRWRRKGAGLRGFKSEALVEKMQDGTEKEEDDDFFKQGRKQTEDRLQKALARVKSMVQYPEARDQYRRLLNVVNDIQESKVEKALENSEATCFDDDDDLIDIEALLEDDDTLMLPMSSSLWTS
Assay: binding assay

“ACGCGC (double strand) [CGCG box ACGCGC]”: binds.

“ACGCGG (double strand) [CGCG box ACGCGG]”: binds (any CGCG mutation abolishes binding).

“ACGCGT (double strand) [CGCG box ACGCGT]”: binds.

“CCGCGC (double strand) [CGCG box CCGCGC]”: binds.

“CCGCGG (double strand) [CGCG box CCGCGG]”: binds.

“CCGCGT (double strand) [CGCG box CCGCGT]”: binds.

“GCGCGG (double strand) [CGCG box GCGCGG]”: binds.

“GCGCGT (double strand) [CGCG box GCGCGT]”: binds.

Reference: patent publication US20100223690A1, “COMPOSITIONS AND METHODS FOR MODULATING PLANT DISEASE RESISTANCE AND IMMUNITY” (Washington State University, published 2010)
